The results in this text go back to US10258629B2, “Liposomal drug encapsulation” (priority 2014, dated 2019).

Series [1] can be described thus: Reverse pH gradient encapsulation efficiency of staurosporine in liposomes.
Series [2] relates to PC3 pancreatic, MDAMB231 breast cancer cells and mouse melanoma cell line B16F10. In words: cells.

The term EC50 denotes the concentration giving half of the maximal effect. Read a low EC50 as a more potent agent. As to `CN[C@@H]1C[C@H]2O[C@@](C)([C@@H]1OC)n1c3ccccc3c3c4c(c5c6ccccc6n2c5c31)C(=O)NC4` [free staurosporine, (9S, 10R, 11R, 13R)-2,3,10,11,12,13-Hexahydro-10-methoxy-9-methyl-11-(methylamino)-9,13-epoxy-1H,9H-diindolo[1,2,3-gh:3′,2′r-lm]pyrrolo[3,4-j][1,7]benzodiazonin-1-one], the Encapsulation efficiency is approximately 70% in series [1] (external buffer HEPES or PBS pH 3, internal buffer pH 7.4); 70% in series [1] (internal buffer pH 7.4, ammonium phosphate 300 mM, external pH 3); 65% in series [1] (internal buffer pH 7.4, ammonium sulfate, external pH 3); 3-4% in series [1] (internal buffer pH 7.4, sodium phosphate or sodium sulfate, external pH 3). Further, the “Loading of staurosporine (encapsulation efficiency)” value in series [1] (internal pH of 3 and external pH of 7.4) is given as approximately 5%. Further, in series [2], the concentration giving a half-maximal response (EC50) lay within 10 to 50 µM.
